# Laboratory results from patent US8530461B2 (Boehringer Ingelheim International GmbH, priority 2011, dated 2013).
# By UniProt entry, the sequences of proteins in these tests, tags left out. Residues count along the entry.
# UniProt O00763, 129-2458 limits assumed: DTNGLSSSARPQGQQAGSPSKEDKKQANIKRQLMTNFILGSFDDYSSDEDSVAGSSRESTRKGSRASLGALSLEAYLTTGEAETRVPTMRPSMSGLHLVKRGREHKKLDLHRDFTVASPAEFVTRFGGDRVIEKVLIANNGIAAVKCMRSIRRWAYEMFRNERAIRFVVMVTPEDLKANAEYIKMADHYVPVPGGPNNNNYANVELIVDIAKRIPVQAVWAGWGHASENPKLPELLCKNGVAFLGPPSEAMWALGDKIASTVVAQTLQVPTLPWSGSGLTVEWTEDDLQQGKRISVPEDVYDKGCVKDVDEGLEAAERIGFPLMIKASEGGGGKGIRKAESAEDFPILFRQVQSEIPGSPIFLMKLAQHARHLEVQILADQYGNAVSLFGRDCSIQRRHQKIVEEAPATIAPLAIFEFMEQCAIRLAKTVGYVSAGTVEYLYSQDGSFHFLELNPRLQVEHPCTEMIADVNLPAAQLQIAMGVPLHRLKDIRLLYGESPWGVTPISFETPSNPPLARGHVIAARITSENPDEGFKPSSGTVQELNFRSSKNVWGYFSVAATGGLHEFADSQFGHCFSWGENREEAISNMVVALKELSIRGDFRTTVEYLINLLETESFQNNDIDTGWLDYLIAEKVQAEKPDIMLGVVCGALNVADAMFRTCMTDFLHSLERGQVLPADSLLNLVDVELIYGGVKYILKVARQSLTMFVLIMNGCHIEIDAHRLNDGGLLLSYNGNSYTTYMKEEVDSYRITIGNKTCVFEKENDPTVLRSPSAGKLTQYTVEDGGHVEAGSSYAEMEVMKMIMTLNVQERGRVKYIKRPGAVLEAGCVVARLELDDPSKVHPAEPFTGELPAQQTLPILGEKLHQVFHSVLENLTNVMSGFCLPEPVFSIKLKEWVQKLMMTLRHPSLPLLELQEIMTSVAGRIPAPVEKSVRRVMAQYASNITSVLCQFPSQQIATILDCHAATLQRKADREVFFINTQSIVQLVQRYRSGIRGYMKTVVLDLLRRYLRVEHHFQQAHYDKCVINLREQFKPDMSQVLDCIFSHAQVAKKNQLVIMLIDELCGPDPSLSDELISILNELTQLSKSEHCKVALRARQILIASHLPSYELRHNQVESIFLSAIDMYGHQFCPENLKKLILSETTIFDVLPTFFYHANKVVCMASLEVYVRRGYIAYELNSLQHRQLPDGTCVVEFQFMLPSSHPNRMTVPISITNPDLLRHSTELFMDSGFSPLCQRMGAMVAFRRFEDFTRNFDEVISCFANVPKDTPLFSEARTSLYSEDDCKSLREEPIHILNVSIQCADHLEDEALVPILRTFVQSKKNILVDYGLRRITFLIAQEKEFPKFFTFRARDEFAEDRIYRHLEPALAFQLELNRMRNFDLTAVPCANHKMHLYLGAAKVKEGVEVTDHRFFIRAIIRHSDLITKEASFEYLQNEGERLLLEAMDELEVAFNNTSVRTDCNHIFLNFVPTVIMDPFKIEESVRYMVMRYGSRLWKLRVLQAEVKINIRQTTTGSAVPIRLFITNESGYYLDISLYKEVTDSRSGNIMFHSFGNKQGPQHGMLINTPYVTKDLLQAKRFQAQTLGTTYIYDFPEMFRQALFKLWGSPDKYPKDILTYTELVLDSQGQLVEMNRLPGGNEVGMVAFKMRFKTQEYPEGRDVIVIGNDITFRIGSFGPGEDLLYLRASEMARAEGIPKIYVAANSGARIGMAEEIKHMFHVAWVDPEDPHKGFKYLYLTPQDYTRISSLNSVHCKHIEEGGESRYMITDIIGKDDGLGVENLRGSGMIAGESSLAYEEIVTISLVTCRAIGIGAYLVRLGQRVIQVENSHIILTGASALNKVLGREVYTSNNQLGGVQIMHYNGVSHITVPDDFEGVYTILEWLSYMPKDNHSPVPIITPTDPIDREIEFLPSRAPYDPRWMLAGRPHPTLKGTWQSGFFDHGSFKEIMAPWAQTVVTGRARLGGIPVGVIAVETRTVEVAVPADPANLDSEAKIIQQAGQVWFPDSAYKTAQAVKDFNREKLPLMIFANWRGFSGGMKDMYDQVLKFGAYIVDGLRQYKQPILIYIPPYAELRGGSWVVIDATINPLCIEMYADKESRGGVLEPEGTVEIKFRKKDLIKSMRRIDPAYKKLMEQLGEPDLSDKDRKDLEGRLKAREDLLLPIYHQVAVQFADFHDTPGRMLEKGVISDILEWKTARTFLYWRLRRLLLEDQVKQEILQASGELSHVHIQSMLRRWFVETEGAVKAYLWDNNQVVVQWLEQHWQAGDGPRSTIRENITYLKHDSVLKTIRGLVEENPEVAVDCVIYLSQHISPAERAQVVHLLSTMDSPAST
# The structures given here were assigned with low confidence; some may be wrong.
# Target: human ACC2 (Homo sapiens, UniProt O00763)
# Assay: ACC2 assay, spectrophotometric 384 well assay (NADH-linked, coupled lactate dehydrogenase/pyruvate kinase)
# Details: human ACC2 construct lacking 128 N-terminal amino acids, 25° C., 340 nm, 15 minutes
# Method: Spectrophotometric 384 Well Assay
# Malonyl CoA formation by acetyl CoA carboxylases is stoichometrically linked to the consumption of ATP. ACC2 activity is measured in a NADH-linked kinetic method measuring ADP generated during the ACC reaction using a coupled lactate dehydrogenase/pyruvate kinase reaction.
# For biological testing, a human ACC2 construct which lacks the 128 amino acids at the N-terminus for increased solubility (nt 385-6966 in Genbank entry AJ575592) is cloned. The protein is then expressed in insect cells using a baculoviral expression system. Protein purification is performed by anion exchange.
# All compounds are dissolved in dimethyl sulfoxide (DMSO) to a concentration of 10 mM.
# Assay reactions are then carried out in 384-well plates, with hACC2 in an appropriate dilution and at final assay concentrations (f.c.) of 100 mM Tris (pH 7.5), 10 mM trisodium citrate, 25 mM KHCO3, 10 mM MgCl2, 0.5 mg/ml BSA, 3.75 mM reduced L-glutathione, 15 U/ml lactate dehydrogenase, 0.5 mM phosphoenolpyruvate, 15 U/ml pyruvate kinase, compounds at different concentrations at final DMSO concentrations of 1%.
# The enzymatic reaction is then started by addition of a mixture of NADH, acetyl Coenzyme A (both […].) and ATP (500 uM f.c.). The decrease of the optical density (slope S) is then determined at 25° C. at a wavelength of 340 nm over 15 minutes in a spectrophotometric reader.
# Each assay microtiter plate contains wells with vehicle instead of compound as controls for the non-inhibited enzyme (100% CTL; ‘HIGH’) and wells without acetyl-CoA as controls for non-specific NADH degradation (0% CTL; ‘LOW’).
# The slope S is used for calculation of % CTL=(S(compound)−S(‘LOW’))/(S(‘HIGH’)−S(‘LOW’))100. Compounds will give values between 100% CTL (no inhibition) and 0% CTL (complete inhibition).
# For IC50 value determination, the sample slope in the presence of the test compound after subtraction of the low controls (S(compound)−S(‘LOW’)) are used.
# An IC50 value is derived from the compound slopes at different dosages after subtraction of the low controls (S(compound)−S(‘LOW’)) by non-linear regression curve fitting (equation y=(A+((B−A)/(1+((C/x)^D))))).
row,SMILES,IC50
1,CCOc1ccc(OC2CN(c3ccc([C@H](C)NC(=O)C4CCOC4)cc3)C2)cc1 (some centres unmarked),1.1 µM
2,CC(=O)N[C@@H](C)c1ccc(N2CC(Oc3ccc(OCC4CC4)cc3)C2)cc1,0.04 µM
3,CCOc1ccc(OC2CN(c3ccc([C@H](C)NC(=O)c4ccoc4)cc3)C2)cc1,0.21 µM
4,CCOc1ccc(OC2CN(c3ccc([C@H](C)NC(=O)c4cnoc4C)cc3)C2)cc1,0.18 µM
5,CCOc1ccc(OC2CN(c3ccc([C@H](C)NC(=O)C4CC4)cc3)C2)cc1,0.17 µM
